The results in this text go back to paper PMC10163288.

The list shows a part of the results.

B1: il2ra_site2_2erj_normal_mot_HHH_b1_03107_000000098_0001_39_52_H_._HHH_b2_03329_0001_0000200010_0000001_0 (protein)
chain: SSSSSSEKEAWEEVAELLARAQHIEDEEEVRELLEEAKRIAEEANNPTLKRYVEFVERDFSSSSS
B2: il2ra_site1_2b5i_normal_mot_a7d4ab743ae57deeac5d741f7278d18b_0001_af2_000000162_0001_36_49_H_._HHH_b1_05055_0001_0000100007_0000001_0_af2pred_dldesign_0_af2pred (protein)
chain: SSSNPLALKVYKLTKKMLEKLKSLGDPEAIRETAAEATARLNALGAPELAAELRAYTEALLSSSS
B3: il2ra_site1_2b5i_sap_11_mot_HHH_b2_04131_000000150_0001_1_16_H_._HHH_b1_06460_af2_0001_0000400019_0000001_0_0001_af2pred_dldesign_0_af2pred (protein)
chain: SSSSSPKREEVERLIEKAKELKAAGKLREALELLEKAYKLAAEAEDDELMDRIEELVRELSSSSS
B4: il2ra_site2_2erj_sap_23_mot_cf89365494dbba80ae51c8475d1ce666_0001_af2_000000081_0001_35_48_H_._HHH_b2_04892_af2_0001_0000300033_0000001_0_0001 (protein)
chain: SSSSNEELKRLYELANRIMELLAKGNQEEAEELVEELKELARKFGSDNAREIAEWLERKVNSSSS
B5: il2ra_site1_1z92_normal_mot_ems_4hM_4976_0002_000000264_0001_48_63_H_._0f30012763798aa20df1e24f2283b1b8_0001_1_0001_0000100008_0000001_0_af2pred_0001_af2pred (protein)
chain: DEEELKELAERVGVPPEQIKRAIEAVREFSKLPPRNAEKFFRQIVRKLEEGDPTAERSLRDLLEL
B6: il2ra_site2_3nfp_sap_21_mot_HHH_b1_07789_af2_000000124_0001_43_56_H_._23585b24c41abd7baf29a1ffab7efa73_0001_af2_0001_0000500005_0000001_0_0001 (protein)
chain: SSSSDDHELYERVAELLKRANKIEDEEEVRRLLEEAEELAEEGNSPVLKRSVEFVAKALLSSSSS
B7: il2ra_site1_1z92_sap_13_mot_b1fbee8209167eaadba3689d49187f1a_0001_1_af2_000000019_0001_16_31_H_._HEEHE_2194_af2_0001_0000400022_0000001_0_0001_af2pred_0001_af2p … (protein)
chain: SSSSSSKEKNARIIVEMAVRNAGLSEEQEEELRKLAEELAEEGLSFEEISRILDKLALELSSSSS
B8: il2ra_site2_3nfp_sap_19_mot_HHH_b1_05208_af2_000000289_0001_23_38_H_._HHH_b1_06843_0002_0000700032_0000001_0_0001 (protein)
chain: SSDYELSIKLIVAHAAQFVSPEQAKKLEELLEKDEELALEIAHYLARVDQEEAEEWIKELVEMSS
B9: il2ra_site2_2erj_normal_mot_HHH_b1_02106_af2_000000056_0001_20_36_H_._HHH_b1_08028_0001_0000400037_0000001_0 (protein)
chain: SSSSDLEEEVEQLIREAEELSRKDPEEAFRVLREASEIAIELGNFELFDEIAELLREIAELSSSS
B10: il2ra_site1_3nfp_normal_mot_HHH_b2_04095_af2_000000160_0001_43_56_H_._5a7f42ee72c73fa248482b5f4de50dd1_0001_0001_0000100002_0000001_0 (protein)
chain: SEKAIEQIVRAIKKQARDPEVEEILEEVEELLKKDPEEAIRLLLELAEKLGDKIAERLLRQLLEL
B11: il2ra_site2_3nfp_normal_mot_HHH_b2_02437_000000052_0001_42_56_H_._HHH_b1_07210_0001_0000400027_0000001_0 (protein)
chain: SSSSDEEEVERLLEEAQELIRQGNPEEAREALARATHIAYENRNAELFALIAEVLLLLAKLSSSS
B12: il2ra_site2_3nfp_normal_mot_73f63e3ba0c5fbd29b02c38bc3203c89_0001_1_000000101_0001_17_33_H_._HHH_b2_06677_0001_0000100009_0000001_0 (protein)
chain: SSSSEEEERIRELLEELERVLKEGDEEEARRLEREIVNLIYETNNHELFALLQEIIIRFLRSSSS
B13: il2ra_site2_2erj_sap_23_mot_dcd9809507f71d420582ead1f1e1bbb3_0001_000000226_0001_37_50_H_._0d160416ff403e1e2deb16f10056a110_0001_0001_0000700021_0000001_0_0001_ … (protein)
chain: SSSSSSSEDEERVEELLEQAKRIPNIKEALKLLEEAAKIALESNNEELVELIDRVLQELSSSSSS
B14: il2ra_site1_1z92_normal_mot_54e474eed2d0515e81978198f0f96ec2_0001_000000202_0001_15_30_H_._15f70e71ac3214bf43105af5abf4654e_0001_1_af2_0001_0000200012_0000001_0 … (protein)
chain: SEEAARKDLQRSLELGVPPRSVVLAVLRALERHLGDPEEALEVIERAIELLNDPELREVVEKLKP
B15: il2ra_site1_2b5i_sap_10_mot_HHH_b1_06833_000000178_0001_1_19_H_._HHH_b1_07629_0001_0000100001_0000001_0_0001_af2pred_dldesign_0_af2pred (protein)
chain: SSSSRESLERYARRLARMLARAAGLSEEAFRELEAEGIRLLEEGVSPREVFERLSARAIELSSSS
B16: il2ra_site2_3nfp_normal_mot_HHH_b2_06150_000000217_0001_39_53_H_._HHH_b1_05978_0001_0000600023_0000001_0 (protein)
chain: SSSSSEEEFEELHRRLEEAAEKGDEERFRELSALITHLAYELRDPRLFAIVAELLYLFEKLSSSS
B17: il2ra_site1_3nfp_normal_mot_HHH_b1_03014_af2_000000204_0001_43_57_H_._HHH_b2_06925_0001_0000100001_0000001_0_1_af2pred_dldesign_0_af2pred (protein)
chain: SSSSSNKDEKYFEAVLRRLKNLTDPEKIKRLSDNALRTLKQANNPEKIAELEKLMAELESSSSSS
B18: il2ra_site1_1z92_normal_mot_HHH_b2_04974_000000012_0001_1_17_H_._HHH_b2_02129_af2_0001_0000100009_0000001_0_af2pred_0001_af2pred (protein)
chain: SSSSSDTDDELAEVVIRLAIELGLSIEQIKELHELAIELLQRGLSEEEIERLLEELAKRLSSSSS
B19: il2ra_site1_3nfp_normal_mot_05aa7e744345dd736dff7248ed86ef87_0001_1_000000048_0001_54_65_H_._HEEHE_2188_0001_0000500017_0000001_0 (protein)
chain: HQERAIERLVEDAARAAGVEEVSVSVENGEITVELRGDNEAARAVEEALKKLAELFGIPVEVEIN
B20: il2ra_site1_2b5i_normal_mot_HHH_b2_04910_000000118_0001_1_19_H_._HHH_b1_03479_0001_0000300021_0000001_0_af2pred_0001_af2pred_1 (protein)
chain: SSSSNDLAEKVLRILKEANELAKNGDPEEAEELLRELVEELRELGNKALVKFVEAALKLARSSSS
B21: il2ra_site2_2erj_sap_22_mot_HHH_b1_01799_af2_000000125_0001_1_17_H_._HHH_b2_06422_0001_0000400004_0000001_0_0001 (protein)
chain: SSSSSVQELAEEAKELAEELNNEDAEEMIELLLRRYEEEGDESFRRMLEDLLRMLRRLLDSSSSS
B22: il2ra_site2_2erj_normal_mot_HHH_b1_02757_000000121_0001_41_57_H_._HHH_b1_06793_af2_0001_0000300025_0000001_0_af2pred_0001_1_af2pred_swapped (protein)
chain: SSSSSSSEVEERVRELLEEAKHVSDLRRAMELLEEASRLAAENDDDELFQLVDKVFQELSSSSSS
B23: il2ra_site1_3nfp_sap_14_mot_HHH_b2_00205_af2_000000209_0001_44_57_H_._bb09b1289b3eca34408f33f278303ce4_0001_1_af2_0001_0000200018_0000001_0_0001_af2pred_0001_af … (protein)
chain: SSSDDRERILELLREAYELVKNGNPEEARELLEEALKLAQELNSEATAKFLEAALRILESLSSSS
B24: il2ra_site1_3nfp_normal_mot_HHH_b2_06780_000000262_0001_1_19_H_._6417e6f601d619eabc23df3f3aa4305e_0001_0001_0000300011_0000001_0_af2pred_0001_af2pred_1_swapped (protein)
chain: SEELLEELAEELGDPKVREVVKLLEEARRHGDPEASRRFDRLLRELARRGIIPPEVVLRVLREAA

This experiment deals with il2ra, P01589. The experiment in a line: yeast display titration.
With B1, the “apparent Kd” value was “inactive: no binding seen”.

As to B2, the “apparent Kd” value was “inactive: no binding seen”.

As to B3, the “apparent Kd” value was “inactive: no binding seen”.

Turning to B4, the “apparent Kd” value was “inactive: no binding seen”.

Take B5: the “apparent Kd” value was “inactive: no binding seen”.

On to B6, for which the “apparent Kd” value is “inactive: no binding seen”.

As to B7, the “apparent Kd” value is “inactive: no binding seen”.

Regarding B8, the “apparent Kd” value is “inactive: no binding seen”.

B9: the “apparent Kd” value is “inactive: no binding seen”.

For the molecule B10, the “apparent Kd” value was “inactive: no binding seen”.

With B11, the “apparent Kd” value was “inactive: no binding seen”.

As to B12, the “apparent Kd” value is “inactive: no binding seen”.

Regarding B13, the “apparent Kd” value was “inactive: no binding seen”.

For B14, the “apparent Kd” value was “inactive: no binding seen”.

For B15, the “apparent Kd” value was “inactive: no binding seen”.

For B16, the “apparent Kd” value was “inactive: no binding seen”.

For B17, the “apparent Kd” value is “inactive: no binding seen”.

With B18, the “apparent Kd” value is “inactive: no binding seen”.

With B19, the “apparent Kd” value is “inactive: no binding seen”.

As for B20, the “apparent Kd” value is “inactive: no binding seen”.

Take B21: the “apparent Kd” value was “inactive: no binding seen”.

Turning to B22, the “apparent Kd” value is “inactive: no binding seen”.

In the case of B23, the “apparent Kd” value is “inactive: no binding seen”.

On to B24, for which the “apparent Kd” value is “inactive: no binding seen”.
